# Measurements reported in the supplement of paper PMC8728848.
# The other results are listed elsewhere or left out.
# B1: a L Fucosidase (Thermotoga maritima) (protein)
# chain: MASMKPRYKPDWESLREHTVPKWFDKAKFGIFIHWGIYSVPGWATPTGELGKVPMDAWFFQNPYAEWYENSLRIKESPTWEYHVKTYGENFEYEKFADLFTAEKWDPQEWADLFKKAGAKYVIPTTKHHDGFCLWGTKYTDFNSVKRGPKRDLVGDLAKAVREAGLRFGVYYSGGLDWRFTTEPIRYPEDLSYIRPNTYEYADYAYKQVMELVDLYLPDVLWNNMGWPEKGKEDLKYLFAYYYNKHPEGSVNDRWGVPHWDFKTAEYHVNYPGDLPGYKWEFTRGIGLSFGYNRNEGPEHMLSVEQLVYTLVDVVSKGGNLLLNVGPKGDGTIPDLQKERLLGLGEWLRKYGDAIYGTSVWERCCAKTEDGTEIRFTRKCNRIFVIFLGIPTGEKIVIEDLNLSAGTVRHFLTGERLSFKNVGKNLEITVPKKLLETDSITLVLEAVEE
# Experiments:
# Experiment in all cases: glycan array binding signal (z-score within array); higher = stronger binding
# Conditions in all cases: glycan notation: IUPAC condensed, linker removed; mutation: D224N
# Gal6S(b1-4)Glc = target: Gal6S(b1-4)Glc
# Procedure, shortened: (§1)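 Glycan array binding is given as a within-array Z-score, which can be read as non-binding when negative. The arrays, 3228 of them, came from the Consortium for Functional Glycomics database and were retained only where the protein sequence was available. Z-scores were averaged across arrays of the same protein sequence at different concentrations or buffers and across linkers.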
# Gal6S(b1-4)Glc6S = target: Gal6S(b1-4)Glc6S
# Procedure, shortened: as §1
# Gal6S(b1-4)GlcNAc = target: Gal6S(b1-4)GlcNAc
# Procedure, shortened: as §1
# Gal6S(b1-4)GlcNAc6S = target: Gal6S(b1-4)GlcNAc6S
# Procedure, shortened: as §1
# GalNAc(a1-3)Gal = target: GalNAc(a1-3)Gal
# Procedure, shortened: as §1
# GalNAc(a1-3)GalNAc = target: GalNAc(a1-3)GalNAc
# Procedure, shortened: as §1
# [1] = target: GalNAc(a1-3)GalNAc(b1-3)Gal(a1-4)Gal(b1-4)Glc
# Procedure, shortened: as §1
# [2] = target: GalNAc(a1-3)GalNAc(b1-3)Gal(a1-4)Gal(b1-4)GlcNAc
# Procedure, shortened: as §1
# GalNAc(b1-3)Gal = target: GalNAc(b1-3)Gal
# Procedure, shortened: as §1
# [3] = target: GalNAc(b1-3)Gal(a1-4)Gal(b1-4)GlcNAc
# Procedure, shortened: as §1
# [4] = target: GalNAc(b1-3)Gal(a1-4)Gal(b1-4)GlcNAc(b1-3)Gal(b1-4)Glc
# Procedure, shortened: as §1
# [5] = target: GalNAc(b1-3)Gal(a1-6)Gal(b1-4)Glc
# Procedure, shortened: as §1
# GalNAc(b1-3)GalNAc = target: GalNAc(b1-3)GalNAc
# Procedure, shortened: as §1
# GalNAc(b1-3)GlcNAc = target: GalNAc(b1-3)GlcNAc
# Procedure, shortened: as §1
# GalNAc(b1-4)Gal(b1-4)Glc = target: GalNAc(b1-4)Gal(b1-4)Glc
# Procedure, shortened: as §1
# GalNAc(b1-4)GlcNAc = target: GalNAc(b1-4)GlcNAc
# Procedure, shortened: as §1
# [6] = target: GalNAc(b1-4)GlcNAc(b1-2)Man
# Procedure, shortened: as §1
# [7] = target: GalNAc(b1-4)GlcNAc(b1-2)Man(a1-3)[GalNAc(b1-4)GlcNAc(b1-2)Man(a1-6)]Man(b1-4)GlcNAc(b1-4)GlcNAc
# Procedure, shortened: as §1
# [8] = target: GalNAc(b1-4)GlcNAc(b1-3)GalNAc(b1-4)GlcNAc
# Procedure, shortened: as §1
# GalNAc(b1-4)GlcNAc6S = target: GalNAc(b1-4)GlcNAc6S
# Procedure, shortened: as §1
# GalNAc(b1-6)GalNAc = target: GalNAc(b1-6)GalNAc
# Procedure, shortened: as §1
# GalNAc3S(b1-4)GlcNAc = target: GalNAc3S(b1-4)GlcNAc
# Procedure, shortened: as §1
# GalNAc3S(b1-4)GlcNAc3S = target: GalNAc3S(b1-4)GlcNAc3S
# Procedure, shortened: as §1
# [9] = target: GalNAc3S(b1-4)[Fuc(a1-3)]GlcNAc
# Procedure, shortened: as §1
# GalNAc4S6S(b1-4)GlcNAc = target: GalNAc4S6S(b1-4)GlcNAc
# Procedure, shortened: as §1
# GalNAc6S(b1-4)GlcNAc = target: GalNAc6S(b1-4)GlcNAc
# Procedure, shortened: as §1
# Glc(a1-4)Glc = target: Glc(a1-4)Glc
# Procedure, shortened: as §1
# [10] = target: Glc(a1-4)Glc(a1-4)Glc(a1-4)Glc
# Procedure, shortened: as §1
# Glc(a1-6)Glc(a1-6)Glc = target: Glc(a1-6)Glc(a1-6)Glc
# Procedure, shortened: as §1
# [11] = target: Glc(a1-6)Glc(a1-6)Glc(a1-6)Glc
# Procedure, shortened: as §1
# Glc(b1-4)Glc = target: Glc(b1-4)Glc
# Procedure, shortened: as §1
# Glc(b1-6)Glc = target: Glc(b1-6)Glc
# Procedure, shortened: as §1
# GlcA(b1-3)Gal = target: GlcA(b1-3)Gal
# Procedure, shortened: as §1
# GlcA(b1-3)GlcNAc = target: GlcA(b1-3)GlcNAc
# Procedure, shortened: as §1
# GlcA(b1-6)Gal = target: GlcA(b1-6)Gal
# Procedure, shortened: as §1
# [12] = target: GlcA3S(b1-3)Gal(b1-4)GlcNAc(b1-2)Man
# Procedure, shortened: as §1
# [13] = target: GlcA3S(b1-3)Gal(b1-4)GlcNAc(b1-3)Gal(b1-4)Glc
# Procedure, shortened: as §1
binder,measurement,setting,value
B1,glycan array binding signal (z-score),Gal6S(b1-4)Glc,0.163
same,glycan array binding signal (z-score),Gal6S(b1-4)Glc6S,-0.426
same,glycan array binding signal (z-score),Gal6S(b1-4)GlcNAc,-0.483
same,glycan array binding signal (z-score),Gal6S(b1-4)GlcNAc6S,-0.361
same,glycan array binding signal (z-score),GalNAc(a1-3)Gal,-0.313
same,glycan array binding signal (z-score),GalNAc(a1-3)GalNAc,-0.627
same,glycan array binding signal (z-score),[1],-0.326
same,glycan array binding signal (z-score),[2],-0.305
same,glycan array binding signal (z-score),GalNAc(b1-3)Gal,-0.477
same,glycan array binding signal (z-score),[3],-0.203
same,glycan array binding signal (z-score),[4],0.065
same,glycan array binding signal (z-score),[5],-1.36
same,glycan array binding signal (z-score),GalNAc(b1-3)GalNAc,0.032
same,glycan array binding signal (z-score),GalNAc(b1-3)GlcNAc,0.486
same,glycan array binding signal (z-score),GalNAc(b1-4)Gal(b1-4)Glc,0.47
same,glycan array binding signal (z-score),GalNAc(b1-4)GlcNAc,0.218
same,glycan array binding signal (z-score),[6],-0.3
same,glycan array binding signal (z-score),[7],0.132
same,glycan array binding signal (z-score),[8],0.076
same,glycan array binding signal (z-score),GalNAc(b1-4)GlcNAc6S,-0.397
same,glycan array binding signal (z-score),GalNAc(b1-6)GalNAc,-0.458
same,glycan array binding signal (z-score),GalNAc3S(b1-4)GlcNAc,1.27
same,glycan array binding signal (z-score),GalNAc3S(b1-4)GlcNAc3S,0.136
same,glycan array binding signal (z-score),[9],-0.654
same,glycan array binding signal (z-score),GalNAc4S6S(b1-4)GlcNAc,0.986
same,glycan array binding signal (z-score),GalNAc6S(b1-4)GlcNAc,-0.231
same,glycan array binding signal (z-score),Glc(a1-4)Glc,-0.171
same,glycan array binding signal (z-score),[10],2.84
same,glycan array binding signal (z-score),Glc(a1-6)Glc(a1-6)Glc,-0.155
same,glycan array binding signal (z-score),[11],0.142
same,glycan array binding signal (z-score),Glc(b1-4)Glc,-0.613
same,glycan array binding signal (z-score),Glc(b1-6)Glc,-0.699
same,glycan array binding signal (z-score),GlcA(b1-3)Gal,-0.68
same,glycan array binding signal (z-score),GlcA(b1-3)GlcNAc,0.573
same,glycan array binding signal (z-score),GlcA(b1-6)Gal,-0.047
same,glycan array binding signal (z-score),[12],-0.236
same,glycan array binding signal (z-score),[13],-0.677

# As a short view, part of the list above.
binder,measurement,setting,value
B1,glycan array binding signal (z-score),[1],-0.326
same,glycan array binding signal (z-score),[2],-0.305
same,glycan array binding signal (z-score),GalNAc(b1-3)Gal,-0.477
